Primary screen of a compound library

Chains of the proteins cited; added tags and fusions are not shown. Residues count along the entry.
UniProt Q8IDJ8, 1-583: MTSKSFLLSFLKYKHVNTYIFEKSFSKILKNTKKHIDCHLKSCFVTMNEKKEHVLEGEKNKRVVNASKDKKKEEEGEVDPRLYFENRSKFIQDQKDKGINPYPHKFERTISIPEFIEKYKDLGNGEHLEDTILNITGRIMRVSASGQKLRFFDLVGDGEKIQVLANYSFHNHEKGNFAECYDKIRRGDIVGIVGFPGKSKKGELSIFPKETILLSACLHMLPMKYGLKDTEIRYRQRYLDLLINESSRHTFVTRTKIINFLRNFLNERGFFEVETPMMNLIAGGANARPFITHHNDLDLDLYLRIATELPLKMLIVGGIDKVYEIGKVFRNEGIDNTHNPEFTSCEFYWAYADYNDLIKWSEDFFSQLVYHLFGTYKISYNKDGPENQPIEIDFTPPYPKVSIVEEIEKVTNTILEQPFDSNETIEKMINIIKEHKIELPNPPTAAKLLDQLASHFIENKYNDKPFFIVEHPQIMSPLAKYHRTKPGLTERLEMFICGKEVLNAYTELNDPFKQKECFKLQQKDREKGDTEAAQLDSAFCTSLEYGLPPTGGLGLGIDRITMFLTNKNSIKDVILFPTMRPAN
UniProt I6X8D2, whole entry: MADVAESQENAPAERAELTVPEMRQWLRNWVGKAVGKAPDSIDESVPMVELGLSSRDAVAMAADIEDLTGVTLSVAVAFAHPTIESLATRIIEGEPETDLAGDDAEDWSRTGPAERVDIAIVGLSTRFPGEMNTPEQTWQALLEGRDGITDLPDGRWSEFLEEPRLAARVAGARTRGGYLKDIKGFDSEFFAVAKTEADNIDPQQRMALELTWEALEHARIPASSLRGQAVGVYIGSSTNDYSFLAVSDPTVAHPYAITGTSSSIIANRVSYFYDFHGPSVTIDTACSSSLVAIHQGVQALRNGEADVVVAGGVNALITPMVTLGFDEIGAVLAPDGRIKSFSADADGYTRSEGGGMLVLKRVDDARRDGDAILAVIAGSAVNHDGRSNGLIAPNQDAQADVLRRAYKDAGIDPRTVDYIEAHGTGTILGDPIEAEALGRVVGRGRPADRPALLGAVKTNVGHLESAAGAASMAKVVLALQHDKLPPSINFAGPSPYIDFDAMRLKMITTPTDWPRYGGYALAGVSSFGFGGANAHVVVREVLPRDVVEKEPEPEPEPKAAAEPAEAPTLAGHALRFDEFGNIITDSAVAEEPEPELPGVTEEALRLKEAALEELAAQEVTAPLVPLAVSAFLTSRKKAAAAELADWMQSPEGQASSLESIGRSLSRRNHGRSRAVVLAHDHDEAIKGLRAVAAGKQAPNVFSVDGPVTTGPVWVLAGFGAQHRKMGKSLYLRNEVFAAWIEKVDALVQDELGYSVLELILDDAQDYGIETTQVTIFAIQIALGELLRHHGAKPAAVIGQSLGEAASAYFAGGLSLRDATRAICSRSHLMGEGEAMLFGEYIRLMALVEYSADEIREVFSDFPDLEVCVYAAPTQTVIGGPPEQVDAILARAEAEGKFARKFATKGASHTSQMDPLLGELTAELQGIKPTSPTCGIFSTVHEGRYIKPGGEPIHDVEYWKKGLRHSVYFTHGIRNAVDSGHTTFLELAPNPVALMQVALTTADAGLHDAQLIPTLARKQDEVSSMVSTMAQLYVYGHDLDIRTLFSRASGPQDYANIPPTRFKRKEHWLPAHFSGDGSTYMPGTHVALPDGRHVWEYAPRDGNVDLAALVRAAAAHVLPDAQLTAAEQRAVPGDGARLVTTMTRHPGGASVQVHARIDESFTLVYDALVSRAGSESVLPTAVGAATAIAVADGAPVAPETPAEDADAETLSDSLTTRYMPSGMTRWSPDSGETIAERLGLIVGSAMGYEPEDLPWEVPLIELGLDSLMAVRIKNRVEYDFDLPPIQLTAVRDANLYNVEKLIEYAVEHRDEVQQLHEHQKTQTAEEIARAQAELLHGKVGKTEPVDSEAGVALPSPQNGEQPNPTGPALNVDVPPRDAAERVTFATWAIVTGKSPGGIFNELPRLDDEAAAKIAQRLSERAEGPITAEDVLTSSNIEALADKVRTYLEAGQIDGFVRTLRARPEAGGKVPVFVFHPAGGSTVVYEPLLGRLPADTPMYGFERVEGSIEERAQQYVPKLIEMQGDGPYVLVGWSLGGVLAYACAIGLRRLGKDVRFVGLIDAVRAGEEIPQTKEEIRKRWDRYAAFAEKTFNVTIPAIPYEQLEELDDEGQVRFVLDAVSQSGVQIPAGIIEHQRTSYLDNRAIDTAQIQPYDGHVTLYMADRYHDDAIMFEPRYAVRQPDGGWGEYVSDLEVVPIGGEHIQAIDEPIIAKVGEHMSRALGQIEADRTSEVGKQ
UniProt P9WNZ1, whole entry: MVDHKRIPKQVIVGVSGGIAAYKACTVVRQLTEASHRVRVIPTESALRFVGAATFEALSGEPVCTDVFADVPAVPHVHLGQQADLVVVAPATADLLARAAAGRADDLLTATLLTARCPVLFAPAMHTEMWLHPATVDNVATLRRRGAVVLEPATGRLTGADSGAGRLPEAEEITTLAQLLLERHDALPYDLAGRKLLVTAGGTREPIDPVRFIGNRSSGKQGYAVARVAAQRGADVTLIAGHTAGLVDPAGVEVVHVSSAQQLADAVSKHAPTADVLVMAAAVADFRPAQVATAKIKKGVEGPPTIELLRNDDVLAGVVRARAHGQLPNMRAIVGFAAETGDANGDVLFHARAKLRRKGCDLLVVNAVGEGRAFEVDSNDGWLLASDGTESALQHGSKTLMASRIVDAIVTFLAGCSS
UniProt Q4DA54, 1-478: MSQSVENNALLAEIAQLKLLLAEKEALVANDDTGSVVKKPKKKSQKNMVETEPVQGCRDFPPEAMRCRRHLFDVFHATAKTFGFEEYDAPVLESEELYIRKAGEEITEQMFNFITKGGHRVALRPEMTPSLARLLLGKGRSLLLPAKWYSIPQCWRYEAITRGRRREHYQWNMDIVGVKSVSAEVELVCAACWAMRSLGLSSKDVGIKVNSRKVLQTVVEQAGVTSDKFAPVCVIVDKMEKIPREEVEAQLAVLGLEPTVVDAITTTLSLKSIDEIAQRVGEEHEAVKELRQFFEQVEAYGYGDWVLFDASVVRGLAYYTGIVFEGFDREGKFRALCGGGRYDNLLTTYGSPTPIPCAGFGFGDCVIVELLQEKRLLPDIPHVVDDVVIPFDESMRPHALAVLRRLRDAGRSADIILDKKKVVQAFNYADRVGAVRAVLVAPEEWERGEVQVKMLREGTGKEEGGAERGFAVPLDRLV
UniProt P9WFT3, whole entry: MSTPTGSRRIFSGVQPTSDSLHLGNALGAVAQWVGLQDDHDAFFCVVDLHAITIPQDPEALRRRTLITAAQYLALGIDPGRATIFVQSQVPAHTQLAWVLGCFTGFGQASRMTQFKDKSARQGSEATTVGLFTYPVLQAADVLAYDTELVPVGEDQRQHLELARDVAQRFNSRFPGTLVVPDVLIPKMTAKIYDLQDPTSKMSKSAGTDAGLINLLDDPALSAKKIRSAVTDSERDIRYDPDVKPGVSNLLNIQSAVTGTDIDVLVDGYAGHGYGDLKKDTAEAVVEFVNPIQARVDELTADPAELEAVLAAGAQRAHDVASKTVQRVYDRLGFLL
UniProt P9WPC5, whole entry: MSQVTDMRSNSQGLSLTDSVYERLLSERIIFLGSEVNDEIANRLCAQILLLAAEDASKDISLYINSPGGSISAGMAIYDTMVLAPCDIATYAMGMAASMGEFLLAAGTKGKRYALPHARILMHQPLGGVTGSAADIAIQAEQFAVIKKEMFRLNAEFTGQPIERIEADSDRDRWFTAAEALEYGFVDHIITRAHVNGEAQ
UniProt P9WPC3, whole entry partner: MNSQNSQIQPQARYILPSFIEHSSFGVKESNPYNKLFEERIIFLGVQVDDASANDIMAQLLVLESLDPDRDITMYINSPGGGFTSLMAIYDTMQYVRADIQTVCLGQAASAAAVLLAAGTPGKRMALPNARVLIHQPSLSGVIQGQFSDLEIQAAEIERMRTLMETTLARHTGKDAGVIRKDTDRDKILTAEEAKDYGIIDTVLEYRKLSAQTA

PfKRS1: 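Lysine-tRNA ligase, Plasmodium falciparum 3D7 (UniProt Q8IDJ8). Enzyme assay of the cytosolic lysyl-tRNA synthetase in 384-well plates, read by luminescence. Concentration: 30 µM. Direction is inferred from only a few compounds that gave an IC50; most scored high, so higher reads as stronger inhibition. Size under these conditions: about 69,000 compounds, about 49 of them at 50% or above in at least one test.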
Pks13 thioesterase: 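Polyketide synthase Pks13, Mycobacterium tuberculosis (UniProt I6X8D2). Enzyme assay of the thioesterase domain of polyketide synthase 13; the read-out is not stated. Concentration: 30 µM. Higher reads as stronger inhibition (inferred from which compounds were picked for retests). Size under these conditions: about 67,000 compounds, about 300 of them at 50% or above in at least one test.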
CoaBC: 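Enzyme assay of CoaBC with a phosphate dye (Biomol Green) read at 650 nm. Target: Coenzyme A biosynthesis protein CoaBC, Mycobacterium tuberculosis (UniProt P9WNZ1). Compounds at 30 µM. Direction is inferred from only a few compounds that gave an IC50; most scored high, so higher reads as stronger inhibition. Most strong results did not repeat in a second test. About 67,000 compounds were tested under these conditions; 0.06% (about 40) showed 50% or more at least once.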
TcHisRS: 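Histidine-tRNA ligase, Trypanosoma cruzi CL Brener (UniProt Q4DA54). Enzyme assay of histidyl-tRNA synthetase; the read-out is not stated. Tested at 30 µM. Direction is inferred from retests: higher values go with stronger inhibition. Of about 69,000 compounds tested this way, about 31 (0.045%) reached 50% or more in at least one test.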
MtTrpRS: 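Enzyme assay of tryptophanyl-tRNA synthetase; the read-out is not stated. Target: Tryptophan-tRNA ligase, Mycobacterium tuberculosis (UniProt P9WFT3). Compounds at 10 µM. Direction is not recorded; retested compounds ran higher, which suggests that high means inhibition. Size under these conditions: about 65,000 compounds, about 64 of them at 50% or above in at least one test.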
ClpP1P2: 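Protease assay of ClpP1P2, read by the AMC dye that it sets free. Target: ClpP1P2, Mycobacterium tuberculosis (UniProt P9WPC5 and UniProt P9WPC3). Compounds at 50 µM. Direction is inferred from only a few compounds that gave an IC50; most scored high, so higher reads as stronger inhibition. Most other retested compounds had strongly negative values. Of about 69,000 compounds tested this way, about 10 (0.015%) reached 50% or more in at least one test.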

The filed quantity is “Percent Effect” (%).
The controls that fix the scale are not given in the record; negative values are as filed.
This is an unselected part of the compounds tested.
A dash means the value is not listed here; it may have been measured.

structure | PfKRS1 | Pks13 thioesterase | CoaBC | TcHisRS | MtTrpRS | ClpP1P2
Cn1c(C2CC2)nc2c1CCN(CCOc1ccccc1C#N)C2 | -0.3515 | -5.366 | 3.409 | 5.187 | 16.22 | -21.76
COc1cccc(C)c1C(=O)N1C[C@@H](CN(C)C)[C@@H](CO)C1 | 1.072 | -8.486 | -0.4545 | 0 | 5.385 | -5.1
CC(=O)N1CCCN(C(=O)NCc2ccc(Cl)s2)CC1 | 2.819 | -12.03 | 5.98 | 5.07 | -0.7668 | 7.931
Cc1cccc(C)c1OCCNC(=O)C[S+]([O-])C1CCCC1 (stereo not drawn) | 3.523 | -10.98 | 0.9662 | 13.55 | -6.182 | -2.986
CCn1cnnc1CNC(=O)N1CCN(c2ccccc2Cl)CC1 | -0.384 | -8.769 | 1.935 | 2.874 | -6.426 | 9.778
O=C(C1CCOC1)N1CCN(Cc2cccnc2)c2ncccc2C1 (stereo not drawn) | -1.297 | -17.66 | -2.343 | 10.48 | -9.131 | -10.44
CCC1=N[C@@]2(CC[C@@H]3CN(S(=O)(=O)CC)C[C@@H]32)C(=O)N1CCOC | -5.097 | -31.26 | 5.263 | 4.301 | -1.195 | 0.9325
CN(C)C(=O)CC1CC2(CCNCC2)c2cc(F)ccc21 (stereo not drawn) | 3.458 | 4.329 | 7.712 | 0.5525 | -0.6103 | -4.21
CN1C(=O)C2(CCN(S(C)(=O)=O)CC2)c2cc(F)ccc21 | 10.23 | 12.35 | -1.232 | 10.31 | -6.296 | 0.3267
CC(C)(C)N1CC(C(=O)N2CCN(CCn3cncn3)CC2)CC1=O (stereo not drawn) | 9.991 | -22.88 | 1.411 | 5.435 | -1.615 | 5.012
NC(=O)C1(c2cnccn2)CCCN1Cc1ccc(Cl)c(F)c1 (stereo not drawn) | 2.361 | -2.745 | 3.874 | -5.556 | - | -7.874
CC(C)(C)n1cc(C(=O)NCCCn2ccnc2)c2cccnc21 | 4.826 | -79.65 | 0.6545 | -1.075 | -3.75 | 14.82
CC(=O)NC(C)C(=O)NCc1ccc(N2CCNC(=O)C2)cc1 (stereo not drawn) | 0.4513 | 3.136 | 4.258 | 2.874 | 0.09737 | -17.44
CNC(=O)c1coc(-c2csc(C)n2)c1 | 2.136 | -11.43 | 5.423 | -0.9804 | 1.068 | -7.389
COc1ccc([C@@H]2CN(Cc3ccncc3)C[C@H]2c2cc[nH]n2)cc1 | 0.2769 | -14.12 | 19.63 | 3.143 | 4.023 | 1.372
Cc1csc(NC(=O)c2cccnc2N2CCOCC2)n1 | -3.661 | -6.931 | 5.854 | -1.961 | 1.806 | -19.49
O=C1CC(c2cccnc2)c2c(c(C(=O)O)cn2-c2ccc(Cl)cc2)N1 (stereo not drawn) | 2.873 | -31.29 | -2.785 | 4.95 | 5.443 | -14.73
Cc1nc(CN2CCC3(CCN(C(=O)c4ccoc4C)CC3)C2)cs1 | 1.223 | -27.29 | -2.773 | 0.9901 | 0.4016 | -10.07
CN(CC(=O)N1CCC(C(O)c2ccccc2)CC1)c1cnccn1 (stereo not drawn) | 3.089 | 37.06 | 11.8 | -4.981 | -2.818 | 5.684
CC(C)c1cc2c(O)nc(CSCC(=O)O)nc2s1 | -0.4315 | -42.73 | 3.096 | 2.732 | -15.28 | 8.391
CN(Cc1ccc(-n2cccn2)cc1)CC1CCCN1c1cccnn1 (stereo not drawn) | 0.6638 | -26.81 | 6.527 | 14.87 | -3.26 | -27.85
CCc1nnc2n1CCN(CCC(=O)Nc1sccc1C#N)C2 | -0.9682 | -10.36 | 3.345 | 3.429 | -0.5801 | -18.28
OC1(CNCCSc2ccccn2)CNCCOC1 (stereo not drawn) | 2.695 | -5.663 | 2.337 | -1.149 | 2.91 | -11.48
Cn1cc(C(=O)NC[C@@H]2OC[C@H]3CN(S(C)(=O)=O)CC[C@H]32)cn1 | 3.487 | -11.75 | 11.4 | -2.479 | -0.08224 | -4.917
O=C(Nc1cccnc1)[C@H]1CO[C@H]2CCNC[C@H]2C1 | -1.675 | -28.72 | 1.356 | 9.524 | -1.152 | -11.85
Cc1cccc(Cn2nc(C3CCNCC3)n(-c3ccccc3)c2=O)c1 | 4.333 | -6.928 | -13.64 | 2.703 | -1.933 | 11.89
O=S(=O)(N(Cc1ccccn1)C1CC1)N1CCCC1c1ccco1 (stereo not drawn) | 4.36 | -39.21 | 10.79 | -0.3831 | -1.263 | 4.233
CN(C)CCN1CCC(NC2CSCCc3ccccc32)CC1 (stereo not drawn) | 8.963 | -28.92 | 5.61 | 7.792 | -0.3396 | 5.899
CNc1cc(C2CCN2c2ncccn2)nc(C)n1 (stereo not drawn) | 2.194 | 2.059 | -0.2427 | 4.981 | -5.849 | -14.95
COCC1CN(C(C)=O)CCN(c2cc(C)ncn2)C1 (stereo not drawn) | 1.352 | -11.24 | 1.314 | 5.303 | 6.22 | 26.81
Cc1nc(CN2CCCC(N(C)c3ccc(C#N)cn3)C2)no1 (stereo not drawn) | 0.5366 | -4.972 | 0.4914 | 6.173 | -0.000006 | 6.21
O=C1NCCC12CN(CC1CC1)CC21CCNCC1 (stereo not drawn) | 2.547 | -29.67 | 6.361 | 4.854 | -3.8 | -8.251

The last 4 entries again:

- CNc1cc(C2CCN2c2ncccn2)nc(C)n1 (stereo not drawn) | PfKRS1: 2.194%; Pks13 thioesterase: 2.059%; CoaBC: -0.2427%; TcHisRS: 4.981%; MtTrpRS: -5.849%; ClpP1P2: -14.95%
- COCC1CN(C(C)=O)CCN(c2cc(C)ncn2)C1 (stereo not drawn) | PfKRS1: 1.352%; Pks13 thioesterase: -11.24%; CoaBC: 1.314%; TcHisRS: 5.303%; MtTrpRS: 6.22%; ClpP1P2: 26.81%
- Cc1nc(CN2CCCC(N(C)c3ccc(C#N)cn3)C2)no1 (stereo not drawn) | PfKRS1: 0.5366%; Pks13 thioesterase: -4.972%; CoaBC: 0.4914%; TcHisRS: 6.173%; MtTrpRS: -0.000006%; ClpP1P2: 6.21%
- O=C1NCCC12CN(CC1CC1)CC21CCNCC1 (stereo not drawn) | PfKRS1: 2.547%; Pks13 thioesterase: -29.67%; CoaBC: 6.361%; TcHisRS: 4.854%; MtTrpRS: -3.8%; ClpP1P2: -8.251%

Measurements from “University of Dundee, Small-Polar-MMV Screening Library” (2021), ChEMBL document CHEMBL3988442.